Assay results taken from patent US20020094344A1, “Method of loading preformed liposomes using ethanol” (The University of British Columbia, priority 1996, published 2002).
Some entries share one result that the patent states for a list of compounds.

Experiment: Release of entrapped solutes from EPC vesicles in 30% ethanol
Format: physicochemical
Conditions: 25° C.

| time to release contents from EPC vesicles | Compound |
| --- | --- |
| ≤ 30 m | OC[C@H]1O[C@@](CO)(O[C@H]2O[C@H](CO)[C@@H](O)[C@H](O)[C@H]2O)[C@@H](O)[C@@H]1O [sucrose] |
| ≤ 30 m | dextran |
